Measurements published in patent US20240182460A1, “ALLOSTERIC CHROMENONE INHIBITORS OF PHOSPHOINOSITIDE 3-KINASE (PI3K) FOR THE TREATMENT OF DISEASE” (PETRA PHARMA CORPORATION, priority 2022, published 2024).
Some of these results come from one statement about several compounds together.

By UniProt entry, the sequences of proteins in these tests, tags left out.
UniProt P42336, whole entry H1047R: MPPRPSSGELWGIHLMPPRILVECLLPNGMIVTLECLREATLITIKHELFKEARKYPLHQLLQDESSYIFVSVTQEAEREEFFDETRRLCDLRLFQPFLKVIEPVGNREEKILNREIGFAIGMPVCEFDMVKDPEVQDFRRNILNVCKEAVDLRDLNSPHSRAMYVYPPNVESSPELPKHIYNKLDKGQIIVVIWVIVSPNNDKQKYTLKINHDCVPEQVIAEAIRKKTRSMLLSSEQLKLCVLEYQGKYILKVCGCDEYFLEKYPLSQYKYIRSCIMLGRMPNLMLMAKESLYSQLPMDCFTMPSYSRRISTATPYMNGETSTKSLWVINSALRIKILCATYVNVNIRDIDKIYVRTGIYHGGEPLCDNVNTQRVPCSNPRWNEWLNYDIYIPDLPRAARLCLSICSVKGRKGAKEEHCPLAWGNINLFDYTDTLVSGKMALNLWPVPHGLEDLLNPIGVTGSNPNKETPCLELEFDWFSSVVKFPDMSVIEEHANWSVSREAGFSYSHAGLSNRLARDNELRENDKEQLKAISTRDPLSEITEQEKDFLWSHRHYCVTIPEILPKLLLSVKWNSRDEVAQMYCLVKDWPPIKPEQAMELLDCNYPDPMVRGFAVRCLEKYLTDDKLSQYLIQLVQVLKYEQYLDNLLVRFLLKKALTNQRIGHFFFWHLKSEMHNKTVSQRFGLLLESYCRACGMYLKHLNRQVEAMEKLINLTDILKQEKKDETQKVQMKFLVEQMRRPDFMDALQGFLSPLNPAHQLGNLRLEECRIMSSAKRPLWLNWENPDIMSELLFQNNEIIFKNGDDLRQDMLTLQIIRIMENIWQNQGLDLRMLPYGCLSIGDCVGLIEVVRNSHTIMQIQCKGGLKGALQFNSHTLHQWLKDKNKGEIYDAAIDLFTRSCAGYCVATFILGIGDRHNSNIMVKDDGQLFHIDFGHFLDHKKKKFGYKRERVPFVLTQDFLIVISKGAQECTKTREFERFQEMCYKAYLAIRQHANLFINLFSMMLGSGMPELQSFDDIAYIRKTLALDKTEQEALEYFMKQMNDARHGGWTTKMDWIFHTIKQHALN

Target: T1, PI3Kα H1047R (Homo sapiens, UniProt P42336, H1047R)
T1 construct: The MDA-MB-453 (ATCC-HTB-131) cell line (PI3Kα H1047R); host or cells: MDA-MB-453
Assay: PI3Kα H1047R mutant in vitro cell based assay, MDA-MB-453 cells (AlphaLisa SureFire)
Conditions: IC50 in SKBR3 divided by IC50 in MDA-MB-453
From the text: PI3K-Alpha Kinase (PI3Kα) Activity: Wild-Type PI3Kα, H1047R Mutant PI3Kα, and E545K Mutant PI3Kα In Vitro Cell Based Assays and Determination of IC50 Values for Inhibitors
The MDA-MB-453 (ATCC-HTB-131) cell line (PI3Kα H1047R) and MCF-7 (ATCC-HTB-22) cell line (PI3Kα E545K), MDA-MB-361 (ATCC-HTB-27) cell line (PI3Kα E545K), and SKBR3 (ATCC-HTB-30) cell line (wild type PI3Kα) were obtained from the American Type Culture Collection (Manassas, VA). MDA-MB-453 cells were maintained in Dulbecco's Modified Eagle Media (DMEM, Gibco 12430) supplemented with 10% Fetal Bovine Serum, heat inactivated (FBS HI, Gibco 10082), 1× non-essential amino acids (NEAA, Gibco 11140), 1 mM sodium pyruvate (Gibco 11360) and 1× Anti-Anti (Gibco 15240). MCF-7 cells were maintained in Minimum Essential Media (MEM) (Gibco 11095) supplemented with 10% Fetal Bovine Serum, heat inactivated (FBS HI, Gibco 10082), 1× non-essential amino acids (NEAA, Gibco 11140), 1 mM sodium pyruvate (Gibco 11360), 1× Anti-Anti (Gibco 15240) and 10 μg/mL human insulin (Sigma I 9278). MDA-MB-361 cells were maintained in Dulbecco's Modified Eagle Media (DMEM, Gibco 12430) supplemented with 20% Fetal Bovine Serum, heat inactivated (FBS HI, Gibco 10082), 1× non-essential amino acids (NEAA, Gibco 11140), 1 mM sodium pyruvate (Gibco 11360) and 1× Anti-Anti (Gibco 15240). SKBR3 cells were maintained in McCoy's 5A (Gibco 16600) supplemented with 10% Fetal Bovine Serum, heat inactivated (FBS HI, Gibco 10082), and 1× Anti-Anti (Gibco 15240). Cultures were maintained in a humidified incubator at 37° C. under 5% CO2/95% air.
For compound testing in 0% FBS, MDA-MB-453, MCF-7 and SKBR3 cells were seeded at a density of 1.5×10^4, 1.0×10^4, and 1.0×10^4 cells, respectively, per well in white 384-well plates in 20 μl of Minimum Essential Media (MEM) assay media with 1×NEAA, 1 mM sodium pyruvate, and 1 μg/mL human insulin (Sigma 19278) (Assay Medium); while MDA-MB-361 cells were seeded at a density of 1.5×10^4 per well in white 384-well plates in 20 μl Assay Medium without insulin. After plating, cells were allowed to attach overnight. Compounds dissolved in 10 mM stock solutions in DMSO were serially diluted 1:3 in DMSO to generate a 10-point dilution series and plated using an acoustic liquid handler system (Echo 550 Series Liquid Handler, Labcyte). A 5× intermediate compound dilution plate in MEM with 1×NEAA and 1 mM sodium pyruvate (150 μM starting compound concentration in 1.5% DMSO) was then prepared. Five μl of the intermediate serially diluted compounds were added to the cell plate to final concentrations ranging from […] in 0.3% DMSO. 0.3% DMSO alone was used to establish the maximum (MAX) signal and GDC-0032 at a final concentration of 1 μM was used as a reference compound for the minimum (MIN) signal. After 3 hours treatment, the medium was removed, and the cells were lysed in 10 μL of 1× SureFire Lysis buffer with shaking for 10 minutes at room temperature. The Acceptor Mix (Reaction Buffer 1+Reaction Buffer 2+Activation Buffer+SureFire Ultra Acceptor Beads) was prepared by diluting Activation buffer 25-fold in combined Reaction Buffer 1 and Reaction Buffer 2.
The Acceptor beads were diluted 50-fold in the combined Reaction Buffers. Five μL of Acceptor Mix was added to each well, the plate was sealed and covered with foil and incubated for 1 hour at room temperature. The Donor Mix (dilution buffer+SureFire Ultra Donor Beads) was prepared by diluting Donor Beads 50-fold in dilution buffer. Five μL of the Donor Mix was added to each well and the plate sealed and covered with foil and incubated for 1-2 hours at room temperature in the dark. The plates were read on a Neo2 plate reader instrument from Biotek using standard AlphaLisa settings.
Compounds were tested in duplicate and the % inhibition at each compound concentration was used to generate two dose response curves. One IC50 was generated using average % inhibition at each compound concentration. […]

SMILES	fold-selectivity for PI3K-Alpha kinase H1047R mutant versus wild-type
Cc1cc([C@@H](C)Oc2ccc(Cl)nc2C(=O)NOC(C)(C)C)c2oc(-c3ccc4nn(C)cc4c3)c(C)c(=O)c2c1 [Example 27A, N-tert-Butoxy-6-chloro-3-[(1R)-1-[3,6-dimethyl-2-(2-methylindazol-5-yl)-4-oxo-chromen-8-yl]ethoxy]pyridine-2-carboxamide]	greater than 20 ×
Cc1cc([C@@H](C)Oc2ccc(Cl)nc2-c2noc(=O)[nH]2)c2oc(-c3cnc4c(c3)OCCN4C)c(C)c(=O)c2c1 [Example 49A, 3-[6-Chloro-3-[(1R)-1-[3,6-dimethyl-2-(4-methyl-2,3-dihydropyrido[3,2-b][1,4]oxazin-7-yl)-4-oxo-chromen-8-yl]ethoxy]-2-pyridyl]-4H-1,2,4-oxadiazol-5-lone]	greater than 20 ×
Cc1cc([C@@H](C)Oc2ccc(Cl)cc2S(N)(=O)=O)c2oc(-c3cnc4ccoc4c3)c(C)c(=O)c2c1 [Example 100C, 5-Chloro-2-[(1R)-1-(2-furo[3,2-b]pyridin-6-yl-3,6-dimethyl-4-oxo-chromen-8-yl)ethoxy]benzenesulfonamide]	greater than 20 ×
Cc1cc([C@@H](C)Oc2ccc(Cl)nc2C(N)=O)c2oc(-c3cnn(C)c3)c(C)c(=O)c2c1 [Example 22A, 6-Chloro-3-[(1R)-1-[3,6-dimethyl-2-(1-methylpyrazol-4-yl)-4-oxo-chromen-8-yl]ethoxy]pyridine-2-carboxamide]	greater than 20 ×
Cc1cc([C@@H](C)Oc2ccc(F)nc2-c2noc(=O)[nH]2)c2oc(-c3ccc4nn(C)cc4c3)c(C)c(=O)c2c1 [Example 103A, 3-[3-[(1R)-1-[3,6-Dimethyl-2-(2-methylindazol-5-yl)-4-oxo-chromen-8-yl]ethoxy]-6-fluoro-2-pyridyl]-4H-1,2,4-oxadiazol-5-one]	greater than 20 ×
Cc1cc([C@@H](C)Oc2cccnc2S(N)(=O)=O)c2oc(-c3ccccn3)c(C)c(=O)c2c1 [Example 34C, 3-[(1R)-1-[3,6-Dimethyl-4-oxo-2-(2-pyridyl)chromen-8-yl]ethoxy]pyridine-2-sulfonamide]	greater than 20 ×
Cc1cc([C@@H](C)Oc2ccc(C)nc2S(N)(=O)=O)c2oc(-c3ccccc3)c(C)c(=O)c2c1 [Example 122C, 3-[(1R)-1-(3,6-Dimethyl-4-oxo-2-phenyl-chromen-8-yl)ethoxy]-6-methyl-pyridine-2-sulfonamide]	greater than 50 ×
Cc1cc([C@@H](C)Oc2ccc(Cl)nc2S(N)(=O)=O)c2oc(-c3cnn(CCC(F)F)c3)c(C)c(=O)c2c1 [Example 119C, 6-Chloro-3-[(1R)-1-[2-[1-(3,3-difluoropropyl)pyrazol-4-yl]-3,6-dimethyl-4-oxo-chromen-8-yl]ethoxy]pyridine-2-sulfonamide]	greater than 20 ×
Cc1cc([C@@H](C)Oc2ccc(Br)nc2C(N)=O)c2oc(-c3ccc4nn(C)cc4c3)c(C)c(=O)c2c1 [Example 81C, 6-Bromo-3-[(1R)-1-[3,6-dimethyl-2-(2-methylindazol-5-yl)-4-oxo-chromen-8-yl]ethoxy]pyridine-2-carboxamide]	greater than 20 ×
Cc1cc([C@@H](C)Oc2ccc(Cl)nc2C(N)=O)c2oc(-c3cc(F)c4nn(C)cc4c3)c(C)c(=O)c2c1 [Example 17B, 6-Chloro-3-[(1R)-1-[2-(7-fluoro-2-methyl-indazol-5-yl)-3,6-dimethyl-4-oxo-chromen-8-yl]ethoxy]pyridine-2-carboxamide]	greater than 20 ×
Cc1cc([C@@H](C)Oc2ccc(Cl)nc2S(N)(=O)=O)c2oc(-c3ccc(S(C)(=O)=O)cc3)c(C)c(=O)c2c1 [Example 31C, 6-Chloro-3-[(1R)-1-[3,6-dimethyl-2-(4-methylsulfonylphenyl)-4-oxo-chromen-8-yl]ethoxy]pyridine-2-sulfonamide]	greater than 50 ×
